Reference: the supplement of paper PMC7024190
Counter-ions that a name gives are not always drawn. This is one part of the list. Repeats in this data set agree poorly, so a single value says little.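 The cells were human embryonic kidney cells carrying a Renilla luciferase gene, driven by the HSV-TK promoter, on a plasmid put in briefly by transfection. This is the first-round screen of about ten thousand compounds, looking for ones that raise reporter output.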

These compounds were tested on HEK 293FT (assay: log relative Renilla luciferase luminescence (reporter expression vs reference, reference not stated) (log (base not stated)); higher = higher recombinant reporter expression). Details: 10 µM; time after transfection 48 h.
Cc1c(OCC(F)(F)F)ccnc1C[S@@+]([O-])c1nc2ccccc2[nH]1 [dexlansoprazole] gave a log of -0.0767. With O=c1ccc2cc(O)c(O)cc2o1 [esculetin] the log was 0.182. Compound C[C@H](CCC(=O)O)[C@H]1CC[C@H]2[C@@H]3[C@H](O)C[C@@H]4C[C@H](O)CC[C@]4(C)[C@H]3C[C@H](O)[C@]12C [cholic acid] has a log of 0.0715. Compound CC(=O)OC1CCC2(C)C(=CCC3C2CCC2(C)C(C(C)CCCC(C)C)CCC32)C1 (configuration not stated) [cholesteryl acetate] has a log of -0.0193. CC(C)=CCC[C@@H](C)[C@H]1CC[C@@]2(C)C3=C(CC[C@]12C)[C@@]1(C)CC[C@H](O)C(C)(C)[C@@H]1CC3 [lanosterol] showed a log of 0.119. For O=C(OCC(O)CO)c1ccccc1Nc1ccnc2cc(Cl)ccc12 (configuration not stated) [glafenine], the log was -0.0172. For CC(C(=O)O)c1ccc(-c2ccccc2)c(F)c1 (configuration not stated) [flurbiprofen], the log was 0.0858. With Cc1cc(O)c2c(c1)C(=O)c1cccc(O)c1C2=O [chrysophanol] the log was 0.0319. Compound COc1cc2c(N3CCN(C(=O)Nc4ccc(OC(C)C)cc4)CC3)ncnc2cc1OCCCN1CCCCC1 [tandutinib] has a log of 0.179. C[C@H]1O[C@@H](O[C@H]2[C@@H](O)C[C@H](O[C@H]3[C@@H](O)C[C@H](O[C@H]4CC[C@@]5(C)[C@H](CC[C@@H]6[C@@H]5C[C@@H](O)[C@]5(C)[C@@H](C7=CC(=O)OC7)CC[C@]65O)C4)O[C@@H]3C)O[C@@H]2C)C[C@H](O)[C@@H]1O [digoxin] was tested, and the log was -1.6. With COc1cc([S+](C)[O-])ccc1-c1nc2cccnc2[nH]1 (configuration not stated) [sulmazole] the log was -0.0137. NC[C@@H]1O[C@H](O[C@H]2[C@@H](O)[C@H](O[C@@H]3[C@@H](O)[C@H](N)C[C@H](N)[C@H]3O[C@H]3O[C@H](CO)[C@@H](O)[C@H](O)[C@H]3N)O[C@@H]2CO)[C@H](N)[C@@H](O)[C@@H]1O [paromomycin sulfate] showed a log of -0.0516. With COc1cc(C)c2c(c1C=O)Oc1c(c(C)c(O)c3c1C(O)OC3=O)OC2=O (configuration not stated) [stictic acid] the log was 0.0121. CC[C@]1(O)C[C@H]2CN(CCc3c([nH]c4ccccc34)[C@@](C(=O)OC)(c3cc4c(cc3OC)N(C=O)[C@H]3[C@@](O)(C(=O)OC)[C@H](OC(C)=O)[C@]5(CC)C=CCN6CC[C@]43[C@@H]65)C2)C1 [vincristine sulfate] gave a log of -0.262. COc1ccccc1OCC(O)CO (configuration not stated) [guaifenesin] showed a log of 0.13. Cc1cc(=O)[nH]c(=S)[nH]1 [methylthiouracil] showed a log of 0.0868. CC(=O)[C@H]1CC[C@H]2[C@@H]3C=CC4=CC(=O)CC[C@@]4(C)[C@@H]3CC[C@]12C [dydrogesterone] showed a log of -0.0915.
